In US20080102477A1:
No constants are given. Whether binding was seen depends on the method and setting. Binding seen in cells or lysates may run through a third protein. Some results given as binding are weak or reduced against the parent protein; the word gives no strength.

Protein sequences, listed by entry. Tags and fused reporters are not part of them.
UniProt O60566: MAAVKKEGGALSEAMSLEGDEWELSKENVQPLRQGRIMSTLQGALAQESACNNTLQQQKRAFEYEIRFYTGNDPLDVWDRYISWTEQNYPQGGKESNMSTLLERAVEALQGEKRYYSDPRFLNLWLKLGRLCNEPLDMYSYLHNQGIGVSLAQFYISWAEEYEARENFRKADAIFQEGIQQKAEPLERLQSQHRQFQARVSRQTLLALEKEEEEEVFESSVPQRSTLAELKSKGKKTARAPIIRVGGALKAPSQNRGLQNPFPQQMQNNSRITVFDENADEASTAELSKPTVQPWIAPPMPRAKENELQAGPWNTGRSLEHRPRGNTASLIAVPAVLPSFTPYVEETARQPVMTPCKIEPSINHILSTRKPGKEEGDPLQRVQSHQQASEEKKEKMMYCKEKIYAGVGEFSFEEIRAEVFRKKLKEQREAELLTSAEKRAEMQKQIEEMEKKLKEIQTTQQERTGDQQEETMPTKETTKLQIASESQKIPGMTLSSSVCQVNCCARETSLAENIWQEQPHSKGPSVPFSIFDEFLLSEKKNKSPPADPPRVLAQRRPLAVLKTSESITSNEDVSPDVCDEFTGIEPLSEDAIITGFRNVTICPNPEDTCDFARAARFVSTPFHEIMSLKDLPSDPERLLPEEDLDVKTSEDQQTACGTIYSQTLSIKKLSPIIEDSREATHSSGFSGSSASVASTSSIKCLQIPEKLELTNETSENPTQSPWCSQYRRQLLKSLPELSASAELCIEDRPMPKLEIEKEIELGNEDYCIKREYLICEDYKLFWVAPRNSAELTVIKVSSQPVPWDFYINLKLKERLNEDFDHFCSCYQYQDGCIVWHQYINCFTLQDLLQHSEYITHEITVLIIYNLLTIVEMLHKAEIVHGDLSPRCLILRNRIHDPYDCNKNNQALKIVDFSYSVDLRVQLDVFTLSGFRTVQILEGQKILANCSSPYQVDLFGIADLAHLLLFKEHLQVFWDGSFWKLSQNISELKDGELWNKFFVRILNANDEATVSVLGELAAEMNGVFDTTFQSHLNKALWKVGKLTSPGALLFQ
UniProt P51587: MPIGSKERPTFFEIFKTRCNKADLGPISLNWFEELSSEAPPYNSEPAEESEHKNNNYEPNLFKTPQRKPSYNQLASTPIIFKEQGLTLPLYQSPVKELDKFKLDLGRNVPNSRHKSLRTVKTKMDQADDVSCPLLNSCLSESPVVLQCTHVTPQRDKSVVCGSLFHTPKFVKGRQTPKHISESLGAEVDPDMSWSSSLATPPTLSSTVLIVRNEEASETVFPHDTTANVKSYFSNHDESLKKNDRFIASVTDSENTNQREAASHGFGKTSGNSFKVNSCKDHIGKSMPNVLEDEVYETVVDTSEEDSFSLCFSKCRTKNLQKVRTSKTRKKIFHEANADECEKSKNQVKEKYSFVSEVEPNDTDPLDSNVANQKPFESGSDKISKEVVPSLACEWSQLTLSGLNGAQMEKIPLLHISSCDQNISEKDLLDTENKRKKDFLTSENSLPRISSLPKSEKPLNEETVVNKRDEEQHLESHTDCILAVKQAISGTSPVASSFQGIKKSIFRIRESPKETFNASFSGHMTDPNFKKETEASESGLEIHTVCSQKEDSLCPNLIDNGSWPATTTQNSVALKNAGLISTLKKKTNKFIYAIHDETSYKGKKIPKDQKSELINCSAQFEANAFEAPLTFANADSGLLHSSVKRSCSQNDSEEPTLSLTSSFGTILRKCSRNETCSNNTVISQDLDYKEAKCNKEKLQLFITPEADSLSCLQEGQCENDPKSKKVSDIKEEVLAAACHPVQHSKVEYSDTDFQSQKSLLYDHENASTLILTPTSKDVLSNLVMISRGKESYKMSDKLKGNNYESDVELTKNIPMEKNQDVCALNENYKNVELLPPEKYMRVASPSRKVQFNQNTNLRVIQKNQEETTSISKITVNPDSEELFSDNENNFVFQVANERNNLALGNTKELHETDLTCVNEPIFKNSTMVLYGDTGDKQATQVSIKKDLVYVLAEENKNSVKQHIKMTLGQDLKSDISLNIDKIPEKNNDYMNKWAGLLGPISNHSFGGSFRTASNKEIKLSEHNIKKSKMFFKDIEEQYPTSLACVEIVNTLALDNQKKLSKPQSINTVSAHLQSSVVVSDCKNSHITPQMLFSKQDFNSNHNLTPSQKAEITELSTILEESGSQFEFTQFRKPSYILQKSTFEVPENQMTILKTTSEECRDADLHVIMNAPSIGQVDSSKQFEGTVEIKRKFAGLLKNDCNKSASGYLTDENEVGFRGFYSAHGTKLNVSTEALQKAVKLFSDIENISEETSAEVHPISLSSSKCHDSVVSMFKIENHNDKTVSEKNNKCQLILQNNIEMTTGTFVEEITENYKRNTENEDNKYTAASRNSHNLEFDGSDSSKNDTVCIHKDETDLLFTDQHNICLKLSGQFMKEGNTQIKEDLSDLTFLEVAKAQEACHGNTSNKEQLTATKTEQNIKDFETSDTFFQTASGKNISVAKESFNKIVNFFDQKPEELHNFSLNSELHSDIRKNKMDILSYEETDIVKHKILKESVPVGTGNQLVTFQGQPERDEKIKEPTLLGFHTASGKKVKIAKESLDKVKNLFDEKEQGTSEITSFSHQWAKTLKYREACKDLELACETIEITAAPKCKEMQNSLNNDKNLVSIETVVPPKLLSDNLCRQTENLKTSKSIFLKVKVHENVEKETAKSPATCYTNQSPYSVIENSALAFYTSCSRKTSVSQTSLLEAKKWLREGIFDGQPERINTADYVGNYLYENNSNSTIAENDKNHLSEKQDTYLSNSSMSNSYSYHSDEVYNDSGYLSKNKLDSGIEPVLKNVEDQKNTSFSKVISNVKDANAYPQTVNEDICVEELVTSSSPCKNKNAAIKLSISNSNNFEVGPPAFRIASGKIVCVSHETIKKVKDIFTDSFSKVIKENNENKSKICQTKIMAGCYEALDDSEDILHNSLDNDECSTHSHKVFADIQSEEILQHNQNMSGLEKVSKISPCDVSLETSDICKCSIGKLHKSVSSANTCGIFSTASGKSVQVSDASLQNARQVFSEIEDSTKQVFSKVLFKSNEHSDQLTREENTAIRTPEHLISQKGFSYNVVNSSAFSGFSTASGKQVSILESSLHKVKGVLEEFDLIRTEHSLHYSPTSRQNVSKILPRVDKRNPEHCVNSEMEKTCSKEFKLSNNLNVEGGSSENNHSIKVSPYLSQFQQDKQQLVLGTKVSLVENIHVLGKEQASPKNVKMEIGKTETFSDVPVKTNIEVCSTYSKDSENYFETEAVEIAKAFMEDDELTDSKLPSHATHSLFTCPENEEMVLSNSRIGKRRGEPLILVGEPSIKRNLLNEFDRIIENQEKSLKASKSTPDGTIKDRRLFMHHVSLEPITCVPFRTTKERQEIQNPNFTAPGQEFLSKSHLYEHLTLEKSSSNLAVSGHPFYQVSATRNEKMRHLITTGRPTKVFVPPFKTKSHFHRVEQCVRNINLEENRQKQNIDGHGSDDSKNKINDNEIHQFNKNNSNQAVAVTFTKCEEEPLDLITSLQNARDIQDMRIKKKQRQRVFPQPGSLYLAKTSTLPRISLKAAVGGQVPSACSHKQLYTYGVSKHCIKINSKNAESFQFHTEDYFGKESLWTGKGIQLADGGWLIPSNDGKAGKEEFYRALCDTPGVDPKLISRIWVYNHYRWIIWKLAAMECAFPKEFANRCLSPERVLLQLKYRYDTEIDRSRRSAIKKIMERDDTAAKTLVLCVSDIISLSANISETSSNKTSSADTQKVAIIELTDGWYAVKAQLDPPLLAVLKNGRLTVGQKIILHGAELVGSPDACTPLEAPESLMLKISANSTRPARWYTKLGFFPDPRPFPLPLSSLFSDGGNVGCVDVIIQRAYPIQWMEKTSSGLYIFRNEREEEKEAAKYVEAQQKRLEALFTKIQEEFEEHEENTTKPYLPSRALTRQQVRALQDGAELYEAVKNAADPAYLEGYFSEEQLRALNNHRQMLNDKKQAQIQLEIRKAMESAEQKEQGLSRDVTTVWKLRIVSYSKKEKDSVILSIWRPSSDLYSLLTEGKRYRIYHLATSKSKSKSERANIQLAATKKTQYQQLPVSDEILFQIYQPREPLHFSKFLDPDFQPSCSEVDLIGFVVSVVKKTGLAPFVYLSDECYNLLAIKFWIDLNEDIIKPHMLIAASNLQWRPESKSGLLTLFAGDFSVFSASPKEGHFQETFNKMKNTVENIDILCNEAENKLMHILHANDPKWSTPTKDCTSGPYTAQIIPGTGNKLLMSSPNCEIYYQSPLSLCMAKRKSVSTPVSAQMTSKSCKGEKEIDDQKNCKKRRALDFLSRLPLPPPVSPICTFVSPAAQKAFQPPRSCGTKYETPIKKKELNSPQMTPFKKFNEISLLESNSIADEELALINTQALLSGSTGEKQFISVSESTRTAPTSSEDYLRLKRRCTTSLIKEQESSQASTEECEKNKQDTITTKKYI

Assays:
BubR1 (human) [1] = biological target: BubR1 (human) (UniProt O60566); assay: co-immunoprecipitation from 293T total cell lysate: IP with anti-BRCA2, Western blot with anti-BubR1
BubR1 (human) [2] = biological target: BubR1 (human) (UniProt O60566); assay: co-immunoprecipitation, Western blot (FIG. 2 legend)

binding (BubR1 (human) [1]): binds | binding (BubR1 (human) [2]): binds
Substance: BRCA2 (from UniProt P51587 1-3418)
